Experimental data taken from publication PMC4809424.
These are yes or no findings as the source states them, for the method shown. Binding seen in cells or lysates may run through a third protein. Some results given as binding are weak or reduced against the parent protein; the word gives no strength. For part of these data: Sequences can lack the tags named with a protein.

Amino acid sequences for entries named in this document (tags omitted).
UniProt P06493: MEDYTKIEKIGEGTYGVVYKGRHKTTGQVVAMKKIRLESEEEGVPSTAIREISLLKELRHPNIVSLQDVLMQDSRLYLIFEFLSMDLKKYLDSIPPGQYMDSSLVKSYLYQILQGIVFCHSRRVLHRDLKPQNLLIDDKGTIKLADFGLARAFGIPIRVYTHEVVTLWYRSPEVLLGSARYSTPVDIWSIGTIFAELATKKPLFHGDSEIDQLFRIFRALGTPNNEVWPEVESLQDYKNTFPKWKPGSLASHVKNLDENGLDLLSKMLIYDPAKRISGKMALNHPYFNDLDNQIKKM
UniProt P14635: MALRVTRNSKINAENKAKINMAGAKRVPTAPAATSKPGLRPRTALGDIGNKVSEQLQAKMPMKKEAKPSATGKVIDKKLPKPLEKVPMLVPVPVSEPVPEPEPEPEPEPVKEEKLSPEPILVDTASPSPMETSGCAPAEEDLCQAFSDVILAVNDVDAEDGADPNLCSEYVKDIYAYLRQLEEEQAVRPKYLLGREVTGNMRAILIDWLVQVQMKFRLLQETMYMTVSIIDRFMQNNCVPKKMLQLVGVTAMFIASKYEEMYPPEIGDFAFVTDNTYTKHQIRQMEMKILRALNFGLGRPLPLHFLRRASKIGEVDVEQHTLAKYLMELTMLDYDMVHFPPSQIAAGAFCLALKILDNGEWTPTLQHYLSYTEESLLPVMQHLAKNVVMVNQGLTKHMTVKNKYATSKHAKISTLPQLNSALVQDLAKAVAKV
UniProt Q12834: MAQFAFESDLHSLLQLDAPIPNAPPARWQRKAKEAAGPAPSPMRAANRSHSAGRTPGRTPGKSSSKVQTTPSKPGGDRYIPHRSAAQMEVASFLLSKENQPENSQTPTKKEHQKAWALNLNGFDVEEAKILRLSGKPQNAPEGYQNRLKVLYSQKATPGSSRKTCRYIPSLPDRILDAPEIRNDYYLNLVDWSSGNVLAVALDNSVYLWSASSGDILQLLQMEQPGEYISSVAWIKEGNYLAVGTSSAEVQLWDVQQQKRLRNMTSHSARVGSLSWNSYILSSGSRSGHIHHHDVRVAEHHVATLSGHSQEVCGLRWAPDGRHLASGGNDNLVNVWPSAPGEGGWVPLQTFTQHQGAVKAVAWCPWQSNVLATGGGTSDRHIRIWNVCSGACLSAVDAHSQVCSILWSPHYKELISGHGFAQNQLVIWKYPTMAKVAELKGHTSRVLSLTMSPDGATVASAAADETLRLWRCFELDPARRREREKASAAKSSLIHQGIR
UniProt Q9UM11: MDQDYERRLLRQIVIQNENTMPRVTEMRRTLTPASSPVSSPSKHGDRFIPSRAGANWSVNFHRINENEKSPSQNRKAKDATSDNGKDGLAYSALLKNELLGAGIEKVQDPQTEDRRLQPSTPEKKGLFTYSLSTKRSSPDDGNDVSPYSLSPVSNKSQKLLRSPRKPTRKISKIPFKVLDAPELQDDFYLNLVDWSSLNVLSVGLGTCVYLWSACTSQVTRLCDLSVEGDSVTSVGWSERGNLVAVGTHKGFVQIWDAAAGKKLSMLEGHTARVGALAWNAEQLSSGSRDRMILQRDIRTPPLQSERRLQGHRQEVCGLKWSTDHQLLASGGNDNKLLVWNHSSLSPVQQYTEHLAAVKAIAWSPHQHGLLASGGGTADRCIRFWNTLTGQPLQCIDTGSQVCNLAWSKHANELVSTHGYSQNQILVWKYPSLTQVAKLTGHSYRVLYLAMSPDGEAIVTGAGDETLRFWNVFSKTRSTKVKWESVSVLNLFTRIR
UniProt Q969H0: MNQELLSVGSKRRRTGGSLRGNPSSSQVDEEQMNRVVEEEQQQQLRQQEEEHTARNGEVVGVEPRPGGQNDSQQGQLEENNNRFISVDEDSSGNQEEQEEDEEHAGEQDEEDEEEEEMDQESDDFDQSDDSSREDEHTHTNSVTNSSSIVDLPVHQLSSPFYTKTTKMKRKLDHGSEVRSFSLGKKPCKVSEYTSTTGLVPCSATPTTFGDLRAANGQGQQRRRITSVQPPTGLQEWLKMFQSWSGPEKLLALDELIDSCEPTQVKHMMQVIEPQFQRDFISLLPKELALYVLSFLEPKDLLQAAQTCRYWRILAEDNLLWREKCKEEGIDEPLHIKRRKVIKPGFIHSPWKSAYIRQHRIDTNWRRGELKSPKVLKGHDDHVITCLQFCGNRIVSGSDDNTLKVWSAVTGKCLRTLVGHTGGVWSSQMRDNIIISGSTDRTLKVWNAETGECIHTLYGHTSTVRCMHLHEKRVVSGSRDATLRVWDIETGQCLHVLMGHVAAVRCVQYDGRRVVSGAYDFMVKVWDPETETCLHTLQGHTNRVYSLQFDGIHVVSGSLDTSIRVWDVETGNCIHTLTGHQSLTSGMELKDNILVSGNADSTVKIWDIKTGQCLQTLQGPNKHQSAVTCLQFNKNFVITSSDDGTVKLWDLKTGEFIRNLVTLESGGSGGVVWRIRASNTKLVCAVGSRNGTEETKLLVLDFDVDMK

B1: USP22 (endogenous) (enzyme, UniProt Q9UPT9 1-525)
chain: MVSRPEPEGEAMDAELAVAPPGCSHLGSFKVDNWKQNLRAIYQCFVWSGTAEARKRKAKSCICHVCGVHLNRLHSCLYCVFFGCFTKKHIHEHAKAKRHNLAIDLMYGGIYCFLCQDYIYDKDMEIIAKEEQRKAWKMQGVGEKFSTWEPTKRELELLKHNPKRRKITSNCTIGLRGLINLGNTCFMNCIVQALTHTPLLRDFFLSDRHRCEMQSPSSCLVCEMSSLFQEFYSGHRSPHIPYKLLHLVWTHARHLAGYEQQDAHEFLIAALDVLHRHCKGDDNGKKANNPNHCNCIIDQIFTGGLQSDVTCQVCHGVSTTIDPFWDISLDLPGSSTPFWPLSPGSEGNVVNGESHVSGTTTLTDCLRRFTRPEHLGSSAKIKCSGCHSYQESTKQLTMKKLPIVACFHLKRFEHSAKLRRKITTYVSFPLELDMTPFMASSKESRMNGQYQQPTDSLNNDNKYSLFAVVNHQGTLESGHYTSFIRQHKDQWFKCDDAIITKASIKDVLDSEGYLLFYHKQFLEYE
B2: Myc-USP22 (enzyme, UniProt Q9UPT9 1-525)
chain: B1 chain

Tests used:
[1] = biological target: cyclin-dependent kinase 1 (CDK1), endogenous (human (endogenous in HCT116)) (UniProt P06493); experiment: co-IP; endogenous proteins in HCT116 lysate; immunoprecipitation with specific antibody, normal IgG as control; immunoblotting
[2] = biological target: CCNB1 (endogenous) (human (endogenous in HCT116)) (UniProt P14635); experiment: as above
CDC20 = CDC20 (UniProt Q12834); experiment: co-IP; transiently transfected HCT116 cells; RIPA lysis buffer with protease inhibitor; indicated antibody (1 ug/ml) and protein G-sepharose; immunoblotting; in Figure 5g cells with control or CDC20-specific siRNA
CDH1 = CDH1 (UniProt Q9UM11); experiment: as above
Flag-tagged CCNB1 = Flag-tagged CCNB1 (UniProt P14635); experiment: as above
FBW7 = FBW7 (UniProt Q969H0); experiment: as above

Binder	binding [1]	binding [2]	binding (CDC20)	binding (CDH1)	binding (Flag-tagged CCNB1)	binding (FBW7)
B1	binds	binds				
B2			binds	no binding	binds	no binding
